# Test results from PubChem BioAssay AID504834 (National Center for Advancing Translational Sciences (NCATS), 2011).
# Among all 320,000 compounds or so, about 22,000 (6.9%) were called active. The inconclusive results got no clear call from the source; some entries with a clear call stand among them for comparison. Calls follow the shape of the dose curve; as a rule, active = well fitted inhibition curve with a large enough effect; inconclusive = small, poorly fitted or top-dose-only effect, or another doubt; inactive = no such curve, though single readings can be large or run the other way. Where the call is inconclusive, the potency comes from a doubtful curve fit.
# Assay: Primary qHTS for delayed death inhibitors of the malarial parasite plastid, 96 hour incubation
# Conditions: P. falciparum luciferase reporter growth; series mostly up to 28.7 µM; activity change, negative = inhibition: at the top concentration
# In short: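 Luminescence readout: decreased luciferase signal marks inhibited growth of reporter-expressing P. falciparum in infected red cells (2% hematocrit, 0.05% parasitemia final), exposed to compound two generations (96 h, 37 C, 5% CO2).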
# % is scaled to controls: 0 for no effect and ±100 for the full control effect; potency is read from the fitted curve at half-maximal effect.
SMILES,Potency,"activity change, negative = inhibition"
COc1ccc(C)cc1-n1c(SCC(=O)Nc2cc(C)on2)nc2ccccc2c1=O,"inconclusive: 18.5 µM [inhibitor, single point]",
C[C@@H]1CCC(=O)N(CC[C@H](Sc2ccc(Br)cc2)c2ccccc2)CC1,"inconclusive: 7.38 µM [inhibitor, partial curve, poor fit]",
CCOP(=O)(OCC)C(Nc1cccc(C)c1)c1ccc(F)cc1 (stereo not given),"inconclusive: 4.65 µM [inhibitor, partial curve]",
COc1ccccc1C(CC(=O)c1ccccc1)CC(=O)c1ccccc1,,inactive: 8.12%
S=C(NC1CCCCC1)N1CCN(c2ncccn2)CC1,,inactive: 9.53%
COCCCN1C(=O)c2[nH]nc(-c3cc(C)cc(C)c3O)c2C1c1ccc(O)c(OC)c1 (stereo not given),"inconclusive: 11.7 µM [inhibitor, single point]",
O=C(Nc1ccc(F)c(F)c1)c1ccc(F)c(S(=O)(=O)N2CCOCC2)c1,"inconclusive: 1.65 µM [inhibitor, full curve]",
CC(=O)N1CCN(c2nnc(-c3ccccc3)c3ccccc23)CC1,,inactive: -11.2%
O=C(NC1CCCC1)c1ccc(CSc2nc3ccncc3n2Cc2ccc(F)cc2)cc1,"inconclusive: 11.7 µM [inhibitor, single point]",
CCOC(=O)c1ccc(-c2c(C(=O)OCC)oc3cc(O)c(CC)cc3c2=O)o1,"inconclusive: 18.5 µM [inhibitor, single point]",
OC[C@H](O)[C@H](O)[C@@H](O)[C@@H](O)[C@@H]1SC(c2ccccc2)=NN1c1ccccc1,"inconclusive: 13.1 µM [inhibitor, single point]",
COc1ccc2nc(Nc3nc(-c4ccncc4)cs3)sc2c1,"inconclusive: 1.17 µM [inhibitor, partial curve, poor fit]",
CC(NC(=O)c1ccc(N(C)C)c([N+](=O)[O-])c1)c1ccc(-n2ccnc2)cc1 (stereo not given),"inconclusive: 18.5 µM [inhibitor, single point]",
CCN(CC)c1ccc2c(C)cc(=O)oc2c1,"inconclusive: 16.5 µM [inhibitor, single point]",
CSc1nc(Cl)c(Cc2ccc(OC(C)C)cc2)c(N(C)C)n1,"inconclusive: 16.5 µM [inhibitor, single point]",
COc1ccc(S(=O)(=O)N2CCCC(N(C)CCc3ccccc3)C2)cc1OC (stereo not given),,inactive: 8.91%
C=CCc1c(O)nc(SCC(=O)c2ccccc2)[nH]c1=O,"inconclusive: 10.4 µM [inhibitor, single point]",
COc1ccc(-c2nc(NC(=O)CSCCO)sc2C)cc1,"inconclusive: 18.5 µM [inhibitor, single point]",

# Single values from the results shown:
# For activity change, negative = inhibition, `CC(=O)N1CCN(c2nnc(-c3ccccc3)c3ccccc23)CC1` reads inactive: -11.2%
# For Potency, `CC(NC(=O)c1ccc(N(C)C)c([N+](=O)[O-])c1)c1ccc(-n2ccnc2)cc1` (stereo not given) reads inconclusive: 18.5 µM [inhibitor, single point]

# Following part:

SMILES,Potency,"activity change, negative = inhibition"
COc1cc(C2/C(=C(\O)c3ccc4c(c3)CC(C)O4)C(=O)C(=O)N2CCCn2ccnc2)cc(OC)c1OC (stereo not given),"inconclusive: 18.5 µM [inhibitor, single point]",
O=C(Nc1ccc(NC(=O)c2ccco2)nc1)c1ccccn1,"inconclusive: 18.5 µM [inhibitor, single point]",
Cc1ccccc1NC(=O)CN1C(=O)N/C(=C\c2ccc(N3CCOCC3)c(F)c2)C1=O,,inactive: 8.84%
Cc1sc2ncn(CC(=O)N3CCN(c4ccccc4)CC3)c(=O)c2c1S(=O)(=O)N1CCOCC1,"inconclusive: 0.185 µM [inhibitor, partial curve, poor fit]",
COCCCn1c(=O)c2sccc2n2c(CCCC(=O)N(C)Cc3ccco3)nnc12,"inconclusive: 3.7 µM [inhibitor, full curve]",
Cc1cccc(CN2CCCC(C(=O)Nc3ccc(-c4cscn4)cc3)C2)c1 (stereo not given),active: 9.28 µM,
COc1ccc(CN(CCc2ccccc2)Cc2ccccc2)cc1OC,"inconclusive: 0.828 µM [inhibitor, full curve, poor fit]",
COc1ccc(OC)c2c(C)c(C)[nH]c12,,inactive: 0%
O=C(O)c1cc(O)ccc1NC(=O)c1cccc2ccccc12,,inactive: 0%
CSc1nnc(-c2sccc2OCc2ccccc2)n1C,,inactive: 17.6%
Cc1cccc(-n2ncc3c2CCCC3NC(=O)C2(C(N)=O)CC2)c1C (stereo not given),"inconclusive: 18.5 µM [inhibitor, single point]",
C=CCn1c(=O)c(C(=O)NCCNCC)c(O)c2ccccc21,,inactive: 78.5%
COc1ccc2oc(C(=O)OCC(=O)N3CCCC(C)C3)c(C)c2c1 (stereo not given),,inactive: 4.26%
O=C(O)CCC(=O)N1N=C(c2ccccc2)CC1c1ccc2c(c1)OCO2 (stereo not given),"inconclusive: 18.5 µM [inhibitor, single point]",
O=C(NC12CC3CC(CC(C3)C1)C2)C1CCCN1C(=O)Nc1ccccc1 (stereo not given),,inactive: 24.6%
Cc1ccc(N(CC(=O)NCc2cccnc2)S(C)(=O)=O)cc1C,active: 4.15 µM,
COc1cc(C)c(Cl)cc1S(=O)(=O)NC1CC(C)(C)NC(C)(C)C1,"inconclusive: 10.4 µM [inhibitor, single point]",
